According to patent publication US6887879B2, “Pharmaceutical combination of antiviral agents” (priority 1999, dated 2005):
Some entries share one result that the patent states for a list of compounds.

System: PBMC, Molt-4, HT-1080, DU-145, HepG2, HSF
Assay: Cytotoxicity, [3H]-thymidine uptake, statement for all cells tested
Type: cell-based
Settings: for CC50s in the cells tested: [3H]-thymidine incorporation; for non toxic to the cell proliferation up to a concentration of: [3H]-thymidine incorporation experiment

Compound	CC50s in the cells tested	non toxic to the cell proliferation up to a concentration of [µM]
Nc1ccn([C@H]2CC[C@@H](CO)O2)c(=O)n1 [ddC, 2′,3′-dideoxycytidine]	less than 10 μM	–
Nc1nc(N)c2ncn([C@H]3CO[C@@H](CO)O3)c2n1 [DAPD, (−)- -D-2,6-diaminopurine-1,3-dioxolane]	–	≥ 500
Nc1nc2c(ncn2[C@H]2CO[C@@H](CO)O2)c(=O)[nH]1 [DXG, (−)-β-D-1,3-dioxolane guanine]	–	≥ 500
Cc1cn([C@H]2C[C@H](N=[N+]=[N-])[C@@H](CO)O2)c(=O)[nH]c1=O [AZT, zidovudine, reference compound]	less than 10 μM	–
